This experiment concerns the target human epidermal growth factor receptor 3 (human (endogenous in BT-474)) (UniProt P21860). Nature of the experiment: co-IP; BT-474 cell lysates incubated with MUC1, EGFR and HER3 antibodies overnight, Western blot; BT-474 WT against TR, rhECM1 treatment (200 ng/ml, 48 h), ECM1 overexpression, ECM1 shRNA in TR cells.

The chains behind the UniProt entries cited, without tags or fusion partners. Residues count along the entry.
UniProt P21860, residues 20-1342: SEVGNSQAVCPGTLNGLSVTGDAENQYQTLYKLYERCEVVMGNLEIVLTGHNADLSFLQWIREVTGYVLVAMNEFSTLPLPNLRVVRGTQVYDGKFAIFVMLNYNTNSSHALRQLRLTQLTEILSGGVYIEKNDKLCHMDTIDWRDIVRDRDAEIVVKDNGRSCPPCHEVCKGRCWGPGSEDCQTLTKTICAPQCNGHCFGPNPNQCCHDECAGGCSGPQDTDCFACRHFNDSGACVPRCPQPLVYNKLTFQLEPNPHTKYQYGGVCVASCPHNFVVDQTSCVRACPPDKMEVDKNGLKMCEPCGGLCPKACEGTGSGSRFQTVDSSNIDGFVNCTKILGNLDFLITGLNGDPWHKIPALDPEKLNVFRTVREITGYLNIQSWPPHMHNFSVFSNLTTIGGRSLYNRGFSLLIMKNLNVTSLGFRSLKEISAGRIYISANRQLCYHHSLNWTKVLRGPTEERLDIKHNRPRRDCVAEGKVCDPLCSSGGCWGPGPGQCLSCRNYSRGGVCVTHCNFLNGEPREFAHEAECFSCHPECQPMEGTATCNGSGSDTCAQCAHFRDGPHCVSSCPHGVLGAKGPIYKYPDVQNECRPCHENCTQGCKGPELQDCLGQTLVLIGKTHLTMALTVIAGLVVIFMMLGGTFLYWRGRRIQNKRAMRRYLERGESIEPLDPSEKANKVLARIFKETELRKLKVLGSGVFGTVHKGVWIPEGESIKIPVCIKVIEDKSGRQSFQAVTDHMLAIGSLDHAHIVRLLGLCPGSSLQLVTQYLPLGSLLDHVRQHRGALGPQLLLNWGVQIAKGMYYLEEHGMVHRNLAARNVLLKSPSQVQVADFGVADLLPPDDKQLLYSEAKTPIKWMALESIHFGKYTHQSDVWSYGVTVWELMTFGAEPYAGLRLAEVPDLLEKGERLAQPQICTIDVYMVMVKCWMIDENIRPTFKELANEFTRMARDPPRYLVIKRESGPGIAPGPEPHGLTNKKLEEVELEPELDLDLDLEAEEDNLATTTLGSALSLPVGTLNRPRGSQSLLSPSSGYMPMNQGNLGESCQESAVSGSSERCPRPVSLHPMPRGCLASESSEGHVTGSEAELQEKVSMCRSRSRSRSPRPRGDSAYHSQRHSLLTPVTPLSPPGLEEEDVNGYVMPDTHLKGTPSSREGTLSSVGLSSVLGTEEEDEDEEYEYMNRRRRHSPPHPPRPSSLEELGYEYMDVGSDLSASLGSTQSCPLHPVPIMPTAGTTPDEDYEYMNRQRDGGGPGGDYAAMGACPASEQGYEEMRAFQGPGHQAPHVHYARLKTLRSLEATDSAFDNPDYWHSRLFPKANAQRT
UniProt P15941, residues 24-1255: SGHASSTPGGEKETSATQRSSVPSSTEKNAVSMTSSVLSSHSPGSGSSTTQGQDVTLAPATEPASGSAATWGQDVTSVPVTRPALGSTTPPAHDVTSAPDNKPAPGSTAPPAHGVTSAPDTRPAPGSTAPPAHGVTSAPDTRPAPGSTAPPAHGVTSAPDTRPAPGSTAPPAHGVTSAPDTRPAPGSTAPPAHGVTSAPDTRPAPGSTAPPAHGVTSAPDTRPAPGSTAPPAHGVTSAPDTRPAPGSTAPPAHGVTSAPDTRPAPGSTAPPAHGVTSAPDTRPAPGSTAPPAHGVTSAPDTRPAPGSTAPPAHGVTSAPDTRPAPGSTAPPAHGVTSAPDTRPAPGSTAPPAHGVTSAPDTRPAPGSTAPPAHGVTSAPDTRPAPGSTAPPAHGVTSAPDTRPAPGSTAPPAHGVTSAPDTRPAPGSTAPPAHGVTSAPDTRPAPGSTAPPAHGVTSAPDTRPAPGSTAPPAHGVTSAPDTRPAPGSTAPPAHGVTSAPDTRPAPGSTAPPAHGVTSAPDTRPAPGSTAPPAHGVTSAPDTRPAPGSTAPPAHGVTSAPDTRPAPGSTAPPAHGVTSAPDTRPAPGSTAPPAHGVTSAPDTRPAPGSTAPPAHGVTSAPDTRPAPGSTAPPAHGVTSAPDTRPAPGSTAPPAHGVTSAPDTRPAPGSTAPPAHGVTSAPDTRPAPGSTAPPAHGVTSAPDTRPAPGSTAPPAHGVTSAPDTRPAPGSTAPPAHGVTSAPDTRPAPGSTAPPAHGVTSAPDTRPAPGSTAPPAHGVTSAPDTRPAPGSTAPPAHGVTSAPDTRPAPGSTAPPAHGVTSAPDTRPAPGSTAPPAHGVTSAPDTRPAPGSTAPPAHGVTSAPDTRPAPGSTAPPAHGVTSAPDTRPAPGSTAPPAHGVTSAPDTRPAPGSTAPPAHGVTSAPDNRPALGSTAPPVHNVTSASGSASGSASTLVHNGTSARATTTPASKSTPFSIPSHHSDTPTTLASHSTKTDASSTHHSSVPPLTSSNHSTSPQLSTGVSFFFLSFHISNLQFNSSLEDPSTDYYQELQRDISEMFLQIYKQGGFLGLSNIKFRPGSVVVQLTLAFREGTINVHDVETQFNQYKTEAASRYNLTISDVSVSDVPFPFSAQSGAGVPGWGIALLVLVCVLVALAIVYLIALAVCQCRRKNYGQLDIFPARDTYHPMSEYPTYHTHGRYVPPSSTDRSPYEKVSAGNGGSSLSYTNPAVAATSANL

No constants are given. Whether binding was seen depends on the method and setting. In cells and extracts the contact can be indirect. Some entries that bind do so weakly or less than the wild type.

For mucin 1 (from UniProt P15941 24-1255), the binding entry was “binds”.
